# These are yes or no findings as the source states them, for the method shown. Binding seen in cells or lysates may run through a third protein. These calls come from enrichment with a bait or labelling near it, and not all partners need be listed. Sequences can lack the tags named with a protein.
# T1: Yep1 (full-length, tagged with GFP or mCherry, expressed in S. pombe) (S. pombe) (UniProt O14355)
# T1 sequence: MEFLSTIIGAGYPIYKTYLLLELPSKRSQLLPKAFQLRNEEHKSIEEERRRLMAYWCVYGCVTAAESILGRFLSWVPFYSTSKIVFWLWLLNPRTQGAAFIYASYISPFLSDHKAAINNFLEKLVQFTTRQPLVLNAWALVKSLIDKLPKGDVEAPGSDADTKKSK
# Molecular target: T1, Yep1 (full-length, tagged with GFP or mCherry, expressed in S. pombe) (S. pombe)
# Assay: affinity purification with mass spectrometry; Yep1-GFP as bait, GFP-Trap immunoprecipitation from S. pombe lysate, mass spectrometry; ER-localizing proteins against a control IP
row,Binder,binding
1,"Rtn1 (protein, UniProt P53694 1-308) MSEQHSLNPFESGSVTASDVAAAKSGAEDLVNTLTAHTVHPSTELPSATSFPSALPNSENPVIQNISSSSSEPHHTSQSTPGETSSPVCPVSGAHGGADKKCPALEAGCPFTNTTKQNVDPEISNALWSVLTWKNTSCSFSTLMSILALVYVPSWINLPRLFFRTFRYVFLITSIIEFGGLFASNGKRGVLSHFRSSYITCDSKALDRIVNSIVDIFNVMLIQFQRILFAESPILTFTASVAAFIEFFLSGFLSYKSLFVWNVLFAFILPRLYVCNERSIKHLVASLERSGDKLKKQATETINTTVNK",binds
2,"Lnp1 (protein, UniProt O94414 1-334) MGWFFQKKKEFDFGGELDRLEMKLEEAQYNIDNIQSQKKKILFRYTVCSLAIYTIGMAVWASRSSILFQHPLFSKLFRISLYILGVFSLYMFRWAIAWFCEKRLSRARMNLHKLNAEKRKILDALKSRKEYFETQALLEKYGEQPTLAQKKLSNAAAAKSVPGSSSSSSDPMHPQHWYDRVLEGLVGANENSENNREALICSHCFHHNGLASYGEKASDVRYVCLFCKAWNGPPIDKSLPSSEMDSNLQTNPSSISKGKKNNSNNTTQKGPNIISSPQVINASSPVRKAGKKKSKKALPTSPLSSSSPDASYNSVSDSFHTVAASVPESLTPTK",binds
3,"Scs2 (protein, UniProt O60119 1-383) MSVECSGELFFYPPFTTMSKELISVHNPNPEPVIFKVKTTAPKHYCVRPNSGKIEPKSTVNVQVLLQAMKEEPAPDFKCRDKFLIQSMAIGDADTSNVENYHEFWTEMEKQGRSIFDRKIRCVYSTKQPPQSADKQVENTSTSNPPVSVEGSENLASSVGGPTAVGVSLDEAQNDFNGAKDHLSNGVNTVVPDSTFRSTFESAQIPDASVVQTVVTDADNGAASVKDTIVTAESASSKGADVARSKVQDIIDNEIPKPSESPRRSVSSTPPVHPPPPVPQNLSAVNEEFDTKKNDFDSKLPESTPAVEKVSENLGSETRESLQGAKPAAGAHSSDNALEQIKPSYSADPSSSTGASLTESPGIPPNIVIILCLIFFLIGYLFF",binds

# Further lines, results first:
row,binding,Binder
1,binds,"Tts1 (protein, UniProt Q9Y7Z5 1-279) MEPKQRVVKPLKERVLPVVKNTQFVWFSGQVIVLISSVLYALQAIPFRSAPPFLFKSAAFGAIVAYAIVLYKTYSPNLTSRASWNKHFFARLMLDDNVQYFILALSMLIDRPILFSLAPYAIYATFHISTYLRSVLLPAIYPNISDAKTASYASRVSNLLNQYTRSQFQPAMQLVASLETFLLFRLFFGVFLRKNSISRLVGYIFFLRMRYTNSHFTRASIKAVSLRMDRLVADNRVPPVIKNAWHTFKTYVSKFGASPVGTAQSRPTASSSTTAPSST"
2,binds,"Yop1 (protein, UniProt Q9UU91 1-182) MSFQVRVKQNMQDLDNRLAAFPQLNSLEKNFGVSKLYVFLTAAGIYALFLFLNWGGFLLTNLLAFAMPAFFSINAIETTNKADDTQWLTYYLVTSFLNVIEYWSQLILYYVPVYWLLKAIFLIWLALPKFNGATIIYRHLIRPYITPHVIRICKSVSRQNAAPAPTASSFAHTTATDIPPSI"
3,binds,"Scs22 (protein, UniProt Q10484 1-319) MALECDSTIVFPRPLTRLVKCDLELRNTAPYPIGFKVKTTAPKQYCVRPNGGRIEANSAVSVEVILQPLDHEPAPGTKCRDKFLVQSTELKPELQGMDIADIWTQVSKANISERKIRCVYSEGPSTANAHANAHHQPAQTTTTSIPTSATDNYTTVNGNVNQSYSKGIDGTALPSTHANPVAAPSTATTQHTQLPKTSAVSHQKPHEAPSTAVKAPTATVAENEPYPKPQSVPTTTSPNNENNALRSTANVINNTRQSTATSPSMFAGNSGNQIGLARVSSSFGRPTSGAKVVPQIHNTVTVQTAFLLAIICFLIGLLF"
4,binds,"Sey1 (protein, UniProt Q9UTE0 1-762) MSTASNRVSTQIVDEHKQFNNELPKFMQSVGLLDAGFNYHVVAVLGSQSTGKSTLLNNLFGTSFSVMDASKRQQTTKGIWLSKANNSPILVMDVEGTDGRERGEDQDFERKSALFSISTSEVIIVNMWENQVGLYQGSNMALLKTVLEVNLQLFHNKKERCLLQFVIRDFLGNTSMENLADTIMTDLNNIWASLSKPEGFENSVINDFFDVGFTGLPHKILCSDAFSEAVDSLRERFVDNNNSDYIFNVSYHKKIPADGFSLYTREIWDTIENNKDLDLPTQQQLLAQYRCDEIITEVMEPFSTACTILQKEFLPGNLCKDLPTKLLNMFETVIEAYDRQASRYNVHIYQKKKQELIASVDSHLYVFFQAQLNALHKELIKSFFDASNEFPSDTPFKESSSIKINELVNKMREEGESLSLPHVHWDVDPFILKLSEELTQNSETLCKEKLKEKLEELFTGFEFEVSEAVEVAFQKLSHNVWDTLLNEFLAAQNTTIEKIKNIVPFYVDIDDTKTTEEYIINFKKNSWLFFRKKIDSEMSEVLLQQRLRVYFEELFRYDSDGMPKLWKKSGTIDRDYRESLTKTLDLINVLASIKVSDGNYPDLNVDIKTLEPEYTSPASFFTILNRRRVSDISVNFKRSADLIFMDCKRSVINTTTRIPPYFWVLLIVLGWNEFMAILRNPFVFMILMFGGTVVYGLYISGLIWPAKMVLERATNNLVDLATDRFSNTYQEQVQQRAMQRTEKSGSPVASADDAEAEKTALS"
